Test results reported in PubChem BioAssay AID540256 (National Center for Advancing Translational Sciences (NCATS), 2011).
About 3,700 (1.2%) of roughly 300,000 compounds were called active. The inconclusive results got no clear call from the source; some entries with a clear call stand among them for comparison. Calls follow the shape of the full dose curve; tested in HEK293 cells. A potency beside an inconclusive call is a rough fit, not a confirmed value.

Assay: qHTS for Inhibitors of binding or entry into cells for Lassa Virus; also: nearly all actives have a fitted effect of over 50% in size
Details: Lassa virus pseudotype entry inhibition, cell reporter; series mostly up to 37.9 µM
Potency is read from the fitted curve at half-maximal effect.

| SMILES | Potency |
| --- | --- |
| CC(=O)Nc1ccc(C(=O)/C=C/c2ccco2)cc1 | inactive |
| C=C(C)c1cccc(C(C)(C)NC(=O)Nc2cc(C)ccn2)c1 | inconclusive: 28.2 µM [inhibitor, single point] |
| Clc1ccccc1N=C1NN=C(c2cccs2)CS1 | inconclusive: 17.8 µM [inhibitor, single point] |
| O=C1C2C3c4ccccc4C(Br)(c4ccccc43)C2C(=O)N1c1ccccc1O (stereo not given) | inconclusive: 32.6 µM [inhibitor, single point] |
| CCOn1c(=O)c(-c2ccc(Cl)cc2)[n+]([O-])c2ccccc21 | inactive |
| CCOc1cc(CNCCCN2CCOCC2)cc(Cl)c1OCC(=O)NC(C)(C)C | inconclusive: 35.5 µM [inhibitor, single point] |
| COc1ccc(N2C(N)=NC(N)=NC2(C)C)cc1 | inconclusive: 35.5 µM [inhibitor, single point] |
| O=C(COC(=O)COc1cccc(C(F)(F)F)c1)NC(=O)NC1CCCCC1 | inactive |
| COc1ccc(Nc2nc(CC(C)=O)ns2)cc1 | inconclusive: 4.47 µM [activator, full curve, poor fit] |
| Cc1cc(C)c(NC(=S)N(Cc2cccnc2)Cc2ccco2)c(C)c1 | inactive |
| N/C(Cn1cncn1)=N\OC(=O)c1ccc(Cl)cc1Cl | inconclusive: 35.5 µM [inhibitor, single point] |
| Cc1ccc(C(=O)NC(=S)Nc2ccc(N3CCOCC3)cc2)c(C)c1 | inconclusive: 5.01 µM [inhibitor, partial curve, poor fit] |
| COc1ccc(C/C(O)=C(\C#N)c2nc3ccccc3s2)cc1 | inactive |
| CCOC(=O)c1c(NC(=O)c2c(-c3ccccc3)noc2C)sc(C)c1-c1ccccc1 | inconclusive: 0.178 µM [inhibitor, full curve, poor fit] |
| Cc1cccc(C)c1NC(=O)c1ccc(-c2ccc(Cl)cc2Cl)o1 | inconclusive: 6.31 µM [inhibitor, partial curve] |
| COC(=O)c1ccc(Cn2c(SCC(=O)N(C)c3ccccc3)nc3ccccc32)cc1 | inconclusive: 12.6 µM [inhibitor, single point] |
| O=C(Nc1ccc(Cl)cc1)Nc1cnccn1 | inactive |
| CCCCc1ccc(NC(=O)c2ccc3c(c2)CCN3S(=O)(=O)c2ccccc2)cc1 | inconclusive: 7.08 µM [inhibitor, full curve, poor fit] |
| C=CCNC(=O)CSc1nnc(-c2cccs2)o1 | inactive |
| Cc1ccc(NC(=O)c2c(C(F)(F)F)nn(C)c2SCc2cccc(C(F)(F)F)c2)cc1C | inconclusive: 29.1 µM [inhibitor, single point] |
| Nc1nc2ccccc2n1Cc1ccc(Cl)c(Cl)c1 | inactive |
| Clc1ccc2[nH]cc(-c3nnnn3-c3ccccc3)c2c1 | inconclusive: 22.4 µM [inhibitor, single point] |
| CC(C)Cn1cc(C(=O)N2CCN(c3cccc(Cl)c3)CC2)c2c3ccccc3n(C)c2c1=O | inconclusive: 35.5 µM [inhibitor, single point] |

Reformatted in CSV form: 4 of the compounds above.
SMILES,Potency
C=C(C)c1cccc(C(C)(C)NC(=O)Nc2cc(C)ccn2)c1,"inconclusive: 28.2 µM [inhibitor, single point]"
CCOc1cc(CNCCCN2CCOCC2)cc(Cl)c1OCC(=O)NC(C)(C)C,"inconclusive: 35.5 µM [inhibitor, single point]"
N/C(Cn1cncn1)=N\OC(=O)c1ccc(Cl)cc1Cl,"inconclusive: 35.5 µM [inhibitor, single point]"
Cc1ccc(NC(=O)c2c(C(F)(F)F)nn(C)c2SCc2cccc(C(F)(F)F)c2)cc1C,"inconclusive: 29.1 µM [inhibitor, single point]"

Remaining list, next part.

| SMILES | Potency |
| --- | --- |
| CCN1CCN(C(=O)c2cc(COc3c(C)cccc3C)on2)CC1 | inactive |
| COc1ccc(OC)c(CNc2sc3c(c2C(=O)Nc2cc(OC)ccc2OC)CCCC3)c1 | inconclusive: 20 µM [inhibitor, single point] |
| CCCC12CN3CC(CCC)(CN(C1)C3c1ccco1)C2=O (stereo not given) | inactive |
| CCC(C)Sc1cc(C(F)(F)F)c(C(=O)Nc2ccc(Cl)cc2)cn1 (stereo not given) | inconclusive: 35.5 µM [inhibitor, single point] |
| Cc1nc(SCc2ccc(Cl)cc2)c(C#N)c(C)c1Cl | inconclusive: 35.5 µM [activator, single point] |
| COc1ccc(OC2C(=O)N(Cc3ccc(F)cc3)C2c2cc(OC)c(OC)c(OC)c2)cc1 (stereo not given) | inconclusive: 15.8 µM [inhibitor, partial curve, poor fit] |
| CCOc1cc2[nH]c(=O)n(CCCC(=O)N3CCN(c4cccc(Cl)c4)CC3)c(=O)c2cc1OCC | inactive |
| CC(C)c1nc(SCC(=O)Nc2ccc3c(c2)OCCO3)n[nH]1 | inactive |
| O=C(Cn1cnc2nc3c(cc2c1=O)CCCC3)N1CCN(c2ccccc2)CC1 | inconclusive: 17.8 µM [activator, single point] |
| CC(C)c1nnc(NC(=O)CSc2nc3ccccc3[nH]2)s1 | inconclusive: 6.31 µM [inhibitor, partial curve, poor fit] |
| O=C(O)C1Cc2[nH]cnc2C(c2ccccc2O)N1 (stereo not given) | inconclusive: 7.31 µM [activator, partial curve, poor fit] |
| OC(c1ccccc1)(c1ccccc1)C1CCN(C(=S)NCCc2ccccc2)CC1 | inconclusive: 11.2 µM [inhibitor, partial curve, poor fit] |
| COc1ccc(NC(=O)COC(=O)Cn2cnc3ccccc32)cc1 | inactive |
| COc1ccc(N(C(=O)c2snc(C(N)=O)c2N)C(C(=O)NCc2ccc(F)cc2)c2ccc(O)cc2)cc1 (stereo not given) | active: 2.82 µM |
| CCCn1c(N)c(N2CCCCC2)c(=O)n(CC(=O)Nc2ccc(C(C)=O)cc2)c1=O | inactive |
| CCOc1cccc(C(=O)Nc2ccc3oc(Cc4ccc(Cl)cc4)nc3c2)c1 | inconclusive: 22.4 µM [inhibitor, single point] |
| Cc1ccc(Cn2ncc(Cl)c(Cl)c2=O)cc1 | inconclusive: 10.3 µM [inhibitor, single point] |
| CCn1ccc(C(=O)Nc2ccc(S(=O)(=O)Nc3ccccc3OC)cc2)n1 | inactive |
| O=C(CCNC(=O)c1ccccc1Cl)NN=Cc1ccccc1[N+](=O)[O-] | inconclusive: 3.55 µM [inhibitor, single point] |
| O=C(NCc1ccccc1)c1ccc2c(c1)nc1n2CCCCC1 | inconclusive: 17.8 µM [inhibitor, single point] |
| CCC(NC(=O)c1ccccc1NC(=O)c1ccco1)C(=O)NC1CCCCC1 (stereo not given) | inactive |
| Cc1cc(C)n(Cc2ccc(C(=O)Nc3ccc(Br)cc3C)o2)n1 | inconclusive: 0.0058 µM [inhibitor, full curve, poor fit] |
